Measured values reported in PMC11391049 (Life Science Alliance, 2024).
Results are given in words; binding and its absence hold for the method and conditions named. Binding seen in cells or lysates may run through a third protein. These calls come from enrichment with a bait or labelling near it, and not all partners need be listed. Where a sequence is shown, tags or fusion partners need not be part of it.

By UniProt entry, the sequences of proteins in these tests, tags left out.
UniProt P36040: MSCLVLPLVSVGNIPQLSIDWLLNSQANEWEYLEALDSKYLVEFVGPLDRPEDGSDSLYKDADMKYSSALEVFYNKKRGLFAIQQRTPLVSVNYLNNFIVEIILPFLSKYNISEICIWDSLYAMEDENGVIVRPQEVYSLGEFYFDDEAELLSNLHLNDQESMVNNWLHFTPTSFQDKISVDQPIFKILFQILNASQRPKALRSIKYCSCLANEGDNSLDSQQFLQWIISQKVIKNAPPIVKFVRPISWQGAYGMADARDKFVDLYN

T1: β4-S142F (pre1-1) with FLAG-6xHis-tag (S. cerevisiae, UniProt P22141 1-198, S142F)
T1 construct: Pre1/β4, S. cerevisiae, mutant version of the pre1-1 strain; also called pre1-1-FH; Pre1/β4 (β4-S142F)
T1 sequence: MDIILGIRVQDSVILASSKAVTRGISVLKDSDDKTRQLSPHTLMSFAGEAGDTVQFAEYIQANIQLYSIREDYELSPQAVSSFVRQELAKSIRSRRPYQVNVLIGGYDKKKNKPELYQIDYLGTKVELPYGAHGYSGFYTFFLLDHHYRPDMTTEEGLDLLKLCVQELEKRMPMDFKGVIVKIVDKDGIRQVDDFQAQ


Target: T1, β4-S142F (pre1-1) with FLAG-6xHis-tag
Assay: affinity purification with mass spectrometry; tandem affinity purification (FLAG, 6xHis on β4) from pre1-1 cells overexpressing Pba1-Pba2, separation by native PAGE, bands evaluated by MS

Row | Molecule | binding
1 | Pba2 (from UniProt P36040 1-267) | binds
2 | Pba1 (protein, UniProt Q05778 1-276) MLFKQWNDLPEPKHLLDLPEISKNLQSLEVCPVPKVEFPQDLDVPQYSTAVITTKIMNPLFPKNLLQLTSIGEIKTTLTVKSPSLPQSSGKHSWNYDENFPNEVDPDQKNDTADETVYGFSFPIYSFGKTLLFSMEENFISISPIFGNMISRSIISQLAQFSPDIIVIGTSDKIASMKVMTENECTLQPPEFITGFIGSVLTQLIVGPSKGLKFKCLVAPSEGPNGFEKLSLSDMGSLVDLCGQWLGFEPSRYSEECYRLWRCDSAAIGAQSGLYI | binds
